Source: publication PMC10204748
Results are given in words; binding and its absence hold for the method and conditions named. In cells and extracts the contact can be indirect. Some binding calls cover weakened binding; strength is not graded here.

Amino acid sequences for entries named in this document (tags omitted).
UniProt P21796: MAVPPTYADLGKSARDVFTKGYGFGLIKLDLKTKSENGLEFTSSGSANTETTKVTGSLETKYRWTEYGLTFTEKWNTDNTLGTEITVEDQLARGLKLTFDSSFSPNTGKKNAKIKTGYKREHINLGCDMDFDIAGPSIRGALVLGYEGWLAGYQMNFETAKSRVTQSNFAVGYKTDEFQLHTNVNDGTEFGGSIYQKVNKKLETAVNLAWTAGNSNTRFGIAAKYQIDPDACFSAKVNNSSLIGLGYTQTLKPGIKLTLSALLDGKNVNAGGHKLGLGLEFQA

Target: voltage-dependent anion channel (VDAC I), endogenous in 293T-TAU441 cells (human (endogenous in 293T)) (UniProt P21796)
Test: co-IP; lysate of 293T-TAU441 cells after arsenite, with and without a 16 T magnetic field; anti-VDAC I antibody (AF1027) on protein A/G magnetic beads, 1 h at room temperature; Western blot for HK and Bax

binding: binds
B1: hexokinase (HK), endogenous in 293T-TAU441 cells (enzyme, UniProt P19367 1-917)
chain: MIAAQLLAYYFTELKDDQVKKIDKYLYAMRLSDETLIDIMTRFRKEMKNGLSRDFNPTATVKMLPTFVRSIPDGSEKGDFIALDLGGSSFRILRVQVNHEKNQNVHMESEVYDTPENIVHGSGSQLFDHVAECLGDFMEKRKIKDKKLPVGFTFSFPCQQSKIDEAILITWTKRFKASGVEGADVVKLLNKAIKKRGDYDANIVAVVNDTVGTMMTCGYDDQHCEVGLIIGTGTNACYMEELRHIDLVEGDEGRMCINTEWGAFGDDGSLEDIRTEFDREIDRGSLNPGKQLFEKMVSGMYLGELVRLILVKMAKEGLLFEGRITPELLTRGKFNTSDVSAIEKNKEGLHNAKEILTRLGVEPSDDDCVSVQHVCTIVSFRSANLVAATLGAILNRLRDNKGTPRLRTTVGVDGSLYKTHPQYSRRFHKTLRRLVPDSDVRFLLSESGSGKGAAMVTAVAYRLAEQHRQIEETLAHFHLTKDMLLEVKKRMRAEMELGLRKQTHNNAVVKMLPSFVRRTPDGTENGDFLALDLGGTNFRVLLVKIRSGKKRTVEMHNKIYAIPIEIMQGTGEELFDHIVSCISDFLDYMGIKGPRMPLGFTFSFPCQQTSLDAGILITWTKGFKATDCVGHDVVTLLRDAIKRREEFDLDVVAVVNDTVGTMMTCAYEEPTCEVGLIVGTGSNACYMEEMKNVEMVEGDQGQMCINMEWGAFGDNGCLDDIRTHYDRLVDEYSLNAGKQRYEKMISGMYLGEIVRNILIDFTKKGFLFRGQISETLKTRGIFETKFLSQIESDRLALLQVRAILQQLGLNSTCDDSILVKTVCGVVSRRAAQLCGAGMAAVVDKIRENRGLDRLNVTVGVDGTLYKLHPHFSRIMHQTVKELSPKCNVSFLLSEDGSGKGAALITAVGVRLRTEASS
